The list shows a part of the results.

Amino acid sequences for entries named in this document (tags omitted).
UniProt Q0JBA9, entry or part of it: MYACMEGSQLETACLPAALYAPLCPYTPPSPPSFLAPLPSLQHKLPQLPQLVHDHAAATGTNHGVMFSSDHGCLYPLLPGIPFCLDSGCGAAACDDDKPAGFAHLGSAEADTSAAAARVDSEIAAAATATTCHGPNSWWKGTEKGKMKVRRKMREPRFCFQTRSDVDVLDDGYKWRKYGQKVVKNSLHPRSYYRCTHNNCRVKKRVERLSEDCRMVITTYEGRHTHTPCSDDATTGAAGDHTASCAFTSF

The target in this test is OsWRKY34 (Oryza sativa, UniProt Q0JBA9 1-250). Put plainly: protein-binding microarray (RPBM); PBS, 2% BSA, 51.3 ng/ul salmon testes DNA, 50 uM zinc acetate, 200 nM TF, 25 C, 1 h; high values mean tight binding. Conditions: protein: recombinant; tags: N-terminal polyhistidine and DsRed monomer fusion (pET32a); label: CyDye5-dUTP incorporated in the synthesized complementary strand; 3' TTTTT single-stranded linker to array surface; dsDNA, one strand shown. The essentials:
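Transcription factors were each fused at the N-terminus to a polyhistidine tag plus DsRed and expressed in E. coli BL21-CodonPlus before Ni–NTA purification. Binding to a double-stranded custom Agilent array was carried out with 200 nM protein at 25 °C for 1 h in PBS, 2% BSA, salmon testes DNA and 50 µM zinc acetate. The binding signal is per-feature fluorescence intensity, in arbitrary units, on an Axon 4000B scanner.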
For “TTCTTAGTTCTTCTCTGTTCTTTGATCTTGCCAAAGTTCTCGGAGTCACCTAGTGCAG”, the binding signal is 8820 fluorescence intensity (a.u.).
As to “AATTTGTTCAGTTGCCACGGATCCATCATTAATCTGGCAACGGAGTCACCTAGTGCAG”, the binding signal is 8860 fluorescence intensity (a.u.).
For “TTTATATTGGTAACATATTATTTGGCCCATATGGAAAACACGGAGTCACCTAGTGCAG” the value was 8530 fluorescence intensity (a.u.); for “GACACATGAACTTTCAATTTTTCTATCACATCGTTCTAATCGGAGTCACCTAGTGCAG”, 8150 fluorescence intensity (a.u.); for “TGGTGTGTATATATATCTGTTGCGTAATCGTAAAAAAACACGGAGTCACCTAGTGCAG”, 8620 fluorescence intensity (a.u.).
“GTGGTTTCGTTGGTGTTGTGCAGTTGCTGTGGGGATAATGCGGAGTCACCTAGTGCAG”: the binding signal is 11600 fluorescence intensity (a.u.).
Regarding “CATAATCAAGCCTCGTAGGGCTCCATACTGCACCGTTTTTCGGAGTCACCTAGTGCAG”, the binding signal is 8500 fluorescence intensity (a.u.).
In the case of “TATGTTGTCTTTGTTTGCTCCTTCCTTGCGACCTGGTTGACGGAGTCACCTAGTGCAG”, the binding signal is 10500 fluorescence intensity (a.u.).
Consider “TTCCTTCTTTCCTGCTGCCTGCCTAGTCTAGTCTACCACCCGGAGTCACCTAGTGCAG”, for which the binding signal was 8280 fluorescence intensity (a.u.).
As for “CCGCCCTCACGGCCTCACCGCCTCATCTCCGCCGTCGATTCGGAGTCACCTAGTGCAG”, the binding signal was 9290 fluorescence intensity (a.u.).
With “GTCAACTGTCAGCCTGCGTTACCAATAGCACATAATATATCGGAGTCACCTAGTGCAG”, the binding signal was 8110 fluorescence intensity (a.u.).
To “CTCATCAAACTCACCACCGTCGCTTCCATCTCTCTCTGTCCGGAGTCACCTAGTGCAG” belongs 11600 fluorescence intensity (a.u.).
To “ACTAATTTCATTGGAATTTTCTTTTAGGGATTTTTCCTTCCGGAGTCACCTAGTGCAG” belongs 8390 fluorescence intensity (a.u.); to “AATTGCTGTTGACCTGTTGTTGTGCTCCAACATCCAAACACGGAGTCACCTAGTGCAG”, 8290 fluorescence intensity (a.u.); to “TCGTGGTGGTGGTGGTGGTGCAGCTTTTGCTTGCGTGCGACGGAGTCACCTAGTGCAG”, 15300 fluorescence intensity (a.u.).
For the sequence “TTTCTTCTCTTTTCTCCTGTTCACTTTTCTTCTTCTCCTCCGGAGTCACCTAGTGCAG”, the binding signal is 8250 fluorescence intensity (a.u.).
With “TTGCAATTTGCATCACCCATGGTGCGCTTCCACTTATATCCGGAGTCACCTAGTGCAG”, the binding signal was 8680 fluorescence intensity (a.u.).
On to “GGTGGTTCTTGCTTCACACAATCTGGCGCGCTTCAGAACACGGAGTCACCTAGTGCAG”, for which the binding signal is 13300 fluorescence intensity (a.u.).
“TCTCTCATCTCATCTCTTGGTAGTTGCCAGTTGGGACTTGCGGAGTCACCTAGTGCAG”: the binding signal was 12200 fluorescence intensity (a.u.).
As to “TTAGTTCAGGCCGTGTTTAGTTCGTTGCCTAATTTTTTTTCGGAGTCACCTAGTGCAG”, the binding signal is 14200 fluorescence intensity (a.u.).
Regarding “TAATTGTCTTCGTCAGGATCTTCTGCTAATTGTTTGATTTCGGAGTCACCTAGTGCAG”, the binding signal was 8680 fluorescence intensity (a.u.).
Regarding “GTACACCGGAAATATTTCTTTTTTGCGTTCGATTCTTCTGCGGAGTCACCTAGTGCAG”, the binding signal is 12100 fluorescence intensity (a.u.).
Take “TTGAGTCATATTTTTGTCACGGAACTACTTTTACGTCACACGGAGTCACCTAGTGCAG”: the binding signal was 8140 fluorescence intensity (a.u.).
With “GCCGCCCGTTCTCCGCCTCCGCCTCCGCCGGGGATAACGGCGGAGTCACCTAGTGCAG”, the binding signal is 8220 fluorescence intensity (a.u.).
To “CTTTTTCTTCAAACTTTCAACTTTTCTGTCACATCGTTTCCGGAGTCACCTAGTGCAG” belongs 9250 fluorescence intensity (a.u.); to “AATTCTACCTTTCTTTTGTCTAAGTACAATTATCTTTTTCCGGAGTCACCTAGTGCAG”, 11000 fluorescence intensity (a.u.); to “TTATCTGGCATGAACAGGAAGGGTTCACTGTTGTATTTTACGGAGTCACCTAGTGCAG”, 8850 fluorescence intensity (a.u.).
For “ACAACAGGAATCCACCGTGACTTGCTTCACCACCACCCTGCGGAGTCACCTAGTGCAG”, the binding signal is 8780 fluorescence intensity (a.u.).
For the sequence “AGTACATAACATACCTTCATCTTTCGACCAGCTCATCTTTCGGAGTCACCTAGTGCAG”, the binding signal was 10600 fluorescence intensity (a.u.).
With “CTCATCCCGTTTCACCATTTTGTTTCACCATTACAGTAGGCGGAGTCACCTAGTGCAG”, the binding signal is 11900 fluorescence intensity (a.u.).
Take “GATTTGGAGGAACTAGAGCTCGGCACACTGATTGGCTACCCGGAGTCACCTAGTGCAG”: the binding signal was 8410 fluorescence intensity (a.u.).
Turning to “GAGTCGTTCGCGCCGTTCGGCCAGGTCATCGCCGCCACACCGGAGTCACCTAGTGCAG”, the binding signal was 8220 fluorescence intensity (a.u.).
With “CCTGGCGTATCCTTCCTCGATGCTCCAACAACCACCGCACCGGAGTCACCTAGTGCAG”, the binding signal was 8470 fluorescence intensity (a.u.).
For “TTCCCGCTCGCCGTCGTTCCAGTCCAAGCTCCCCGCCACCCGGAGTCACCTAGTGCAG” the value was 10300 fluorescence intensity (a.u.); for “GTGAGACTTGTGGCAAGTATTATTCTTCTTGTGTCTTCATCGGAGTCACCTAGTGCAG”, 8280 fluorescence intensity (a.u.).
In the case of “ATCACAACATCGTAATTCAATTAATTGGTGGTCGTATTATCGGAGTCACCTAGTGCAG”, the binding signal is 8160 fluorescence intensity (a.u.).
Consider “TGCGTTTCTGAACTTTGACTGATCAAGGTTCATTCACTTTCGGAGTCACCTAGTGCAG”, for which the binding signal is 8790 fluorescence intensity (a.u.).
As for “TTGCCGCTGGGCTGGTTGGTGTATTGTGTGGTGAGCATTGCGGAGTCACCTAGTGCAG”, the binding signal was 8480 fluorescence intensity (a.u.).
As to “TCGAGGATAACTTTTATTTTCGCTAAATTTTTTTTGTTTTCGGAGTCACCTAGTGCAG”, the binding signal is 8220 fluorescence intensity (a.u.).
To “ACTGGATCTTCACTTGCACAGCTGCATTATCTCCTCTCTTCGGAGTCACCTAGTGCAG” belongs 9860 fluorescence intensity (a.u.).
For “TCGCGCCATACCCTTCTCCTTTGCCGTTCTGATAGCCACACGGAGTCACCTAGTGCAG”, the binding signal was 8060 fluorescence intensity (a.u.).
Turning to “CACCCACAGCGCCATCCACACGACATCCTTTATCTTATCCCGGAGTCACCTAGTGCAG”, the binding signal was 12400 fluorescence intensity (a.u.).
Regarding “TTCTCCCATTTTTAGGTGCGGTCCCATTTTTAGGCATTTTCGGAGTCACCTAGTGCAG”, the binding signal was 14800 fluorescence intensity (a.u.).
For the sequence “ATTCCTCATATCCGTTTCCTGCGAATAGAAGCGCCTTCATCGGAGTCACCTAGTGCAG”, the binding signal was 8710 fluorescence intensity (a.u.).
To “TTTGTCTTGTACAACTAGTTATACCTTTTACTATTTTCATCGGAGTCACCTAGTGCAG” belongs 8740 fluorescence intensity (a.u.); to “CCGTATTTTAATGTATATGACACCGTTGACTTTTTGACCACGGAGTCACCTAGTGCAG”, 40800 fluorescence intensity (a.u.); to “CCGGCACCCCGCGCGCCCGCCCGTCGCCCGTCGCGCCATGCGGAGTCACCTAGTGCAG”, 9360 fluorescence intensity (a.u.).
Consider “TCCTGGAGGTTTGGGTTGTGATGGGAAGAAAGGGAACTGACGGAGTCACCTAGTGCAG”, for which the binding signal was 8550 fluorescence intensity (a.u.).
“CTGGCGCGATTTTCTTTTGTTCGTTCCTTTTATTTTCGCACGGAGTCACCTAGTGCAG”: the binding signal is 10100 fluorescence intensity (a.u.).
Regarding “AGACATTTTTCTTTCTCGTGGATATTTACGCCTTTCTTGACGGAGTCACCTAGTGCAG”, the binding signal was 8790 fluorescence intensity (a.u.).
“ACCATGCCACCGGACCTCCTTGCCCTTAGCTGCTTCCTCGCGGAGTCACCTAGTGCAG”: the binding signal is 8890 fluorescence intensity (a.u.).
On to “TCCGCGGCTATCTCCCCGTACCGCTGCTCCACCTGCGCCGCGGAGTCACCTAGTGCAG”, for which the binding signal is 8960 fluorescence intensity (a.u.).
Take “CTGGATCTCCTCTCTCTCTCTCTCTCTCTGTCCTTCTTCTCGGAGTCACCTAGTGCAG”: the binding signal was 10800 fluorescence intensity (a.u.).
As for “ACCTCCACCACCCGCCGCCGCCGCCGCCGCCGCCGCCATGCGGAGTCACCTAGTGCAG”, the binding signal was 8120 fluorescence intensity (a.u.).

Values taken from publication PMC7819943, “Rice protein-binding microarrays: a tool to detect cis-acting elements near promoter regions in rice”.
